Residue numbers refer to the chain shown, from its start. These are yes or no findings as the source states them, for the method shown. Binding seen in cells or lysates may run through a third protein. A yes stands for co-enrichment or nearness to the bait. Other partners may have been found. Tags and fused reporters may be left off the sequences shown.
Experiments:
[1] = target: T1, eGFP-GGSG-Flag-RBM20-R634Q (human) (UniProt Q5T481); experiment: affinity purification with mass spectrometry; GFP-Trap magnetic particles, 1 mg of cytoplasmic fraction of HeLa expressing eGFP-RBM20 (WT, P633L, R634Q, RSS), 4 °C 3 h; washes with 150 mM NaCl, 0.1% NP-40; TMT LC-MS/MS; hits against a no-bait control
T1 sequence: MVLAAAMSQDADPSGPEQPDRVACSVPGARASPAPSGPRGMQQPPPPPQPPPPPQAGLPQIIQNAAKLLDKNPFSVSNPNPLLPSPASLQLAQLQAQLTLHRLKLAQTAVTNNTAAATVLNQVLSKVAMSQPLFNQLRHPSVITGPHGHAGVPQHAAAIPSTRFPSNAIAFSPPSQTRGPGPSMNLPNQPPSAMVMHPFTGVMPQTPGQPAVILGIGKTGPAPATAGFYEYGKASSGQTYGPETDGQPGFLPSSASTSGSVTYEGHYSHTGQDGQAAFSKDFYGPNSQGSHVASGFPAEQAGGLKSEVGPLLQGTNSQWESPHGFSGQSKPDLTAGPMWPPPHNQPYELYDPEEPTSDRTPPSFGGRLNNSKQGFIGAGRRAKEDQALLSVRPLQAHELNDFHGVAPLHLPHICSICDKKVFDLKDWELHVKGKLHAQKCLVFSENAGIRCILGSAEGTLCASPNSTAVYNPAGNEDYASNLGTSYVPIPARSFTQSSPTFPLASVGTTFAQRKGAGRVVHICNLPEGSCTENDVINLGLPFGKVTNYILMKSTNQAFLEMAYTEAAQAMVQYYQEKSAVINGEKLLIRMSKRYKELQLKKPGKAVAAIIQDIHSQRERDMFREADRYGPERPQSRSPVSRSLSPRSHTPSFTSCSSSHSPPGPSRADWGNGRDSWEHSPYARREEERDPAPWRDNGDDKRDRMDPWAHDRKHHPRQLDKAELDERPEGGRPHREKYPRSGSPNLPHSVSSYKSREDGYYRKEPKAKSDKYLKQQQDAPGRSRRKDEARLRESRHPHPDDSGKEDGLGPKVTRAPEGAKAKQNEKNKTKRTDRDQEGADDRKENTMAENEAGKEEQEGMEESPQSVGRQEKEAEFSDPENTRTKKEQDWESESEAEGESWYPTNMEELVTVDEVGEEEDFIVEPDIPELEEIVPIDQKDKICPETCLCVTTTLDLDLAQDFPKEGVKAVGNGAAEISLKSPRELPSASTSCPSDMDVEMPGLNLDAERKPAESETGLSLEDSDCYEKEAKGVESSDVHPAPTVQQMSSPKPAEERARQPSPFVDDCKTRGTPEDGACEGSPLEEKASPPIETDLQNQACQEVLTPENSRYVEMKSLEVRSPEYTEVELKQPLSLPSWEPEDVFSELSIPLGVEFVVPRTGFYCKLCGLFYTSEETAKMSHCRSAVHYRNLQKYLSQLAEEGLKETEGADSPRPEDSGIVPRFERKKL

Protein sequences, listed by entry. Tags and fused reporters are not part of them.
UniProt Q14671: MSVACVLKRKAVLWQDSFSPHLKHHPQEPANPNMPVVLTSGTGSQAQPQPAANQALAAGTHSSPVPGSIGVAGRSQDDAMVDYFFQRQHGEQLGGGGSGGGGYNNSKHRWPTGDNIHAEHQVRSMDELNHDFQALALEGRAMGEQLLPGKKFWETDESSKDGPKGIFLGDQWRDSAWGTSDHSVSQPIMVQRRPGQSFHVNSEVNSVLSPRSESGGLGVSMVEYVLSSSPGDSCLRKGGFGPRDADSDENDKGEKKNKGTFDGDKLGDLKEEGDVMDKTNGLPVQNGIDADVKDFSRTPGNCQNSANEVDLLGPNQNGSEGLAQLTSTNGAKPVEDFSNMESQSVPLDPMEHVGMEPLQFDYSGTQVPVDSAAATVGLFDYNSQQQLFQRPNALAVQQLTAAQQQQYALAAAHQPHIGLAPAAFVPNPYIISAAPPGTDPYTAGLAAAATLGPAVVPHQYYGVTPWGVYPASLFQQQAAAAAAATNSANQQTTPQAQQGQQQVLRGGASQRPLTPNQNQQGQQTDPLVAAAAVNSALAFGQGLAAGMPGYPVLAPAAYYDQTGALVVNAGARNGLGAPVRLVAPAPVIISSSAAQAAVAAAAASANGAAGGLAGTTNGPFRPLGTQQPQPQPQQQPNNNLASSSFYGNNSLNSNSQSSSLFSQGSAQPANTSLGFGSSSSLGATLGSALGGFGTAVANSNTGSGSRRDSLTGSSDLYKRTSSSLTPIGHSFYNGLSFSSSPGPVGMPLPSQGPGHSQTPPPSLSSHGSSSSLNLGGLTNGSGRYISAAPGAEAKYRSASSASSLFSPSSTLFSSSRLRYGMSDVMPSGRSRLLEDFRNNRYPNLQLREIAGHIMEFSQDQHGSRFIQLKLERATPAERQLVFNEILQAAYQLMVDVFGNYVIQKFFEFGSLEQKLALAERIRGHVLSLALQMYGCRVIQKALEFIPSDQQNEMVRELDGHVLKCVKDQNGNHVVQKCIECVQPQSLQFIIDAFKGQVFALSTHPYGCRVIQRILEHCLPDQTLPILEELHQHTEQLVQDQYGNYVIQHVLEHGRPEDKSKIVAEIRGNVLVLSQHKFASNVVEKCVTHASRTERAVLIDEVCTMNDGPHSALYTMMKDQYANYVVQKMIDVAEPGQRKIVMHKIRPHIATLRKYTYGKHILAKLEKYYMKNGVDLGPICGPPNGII

[2] = target: T2, eGFP-GGSG-Flag-RBM20-P633L (human) (UniProt Q5T481); experiment: as above
T2 sequence: T1 sequence with P633L, Q634R

binding [1]: binds | binding [2]: binds
Substance: PUM1 (from UniProt Q14671 1-1186)
